# Article PMC7862700
# This is a selection; strong and weak results do not stand in their true shares. At the low end of the ranking, values are background and their order means little.
# Columns and labels:
# Experiment in all cases: DAPPL (digital affinity profiling via proximity ligation, sequencing)
# Conditions in all cases: 10 mM Tris-HCl pH 7.5, 50 mM NaCl, 1 mM DTT, 4% glycerol, room temperature, 30 min; GST-TFs on glutathione beads, 16-mer random dsDNA library, 0.1% …; high values mean tight binding; double strand, one strand shown; scale: fold enrichment (6-mer frequency, TF over GST control)
# [1] = target: T1, SPIC (UniProt Q8N5J4)
# T1 sequence: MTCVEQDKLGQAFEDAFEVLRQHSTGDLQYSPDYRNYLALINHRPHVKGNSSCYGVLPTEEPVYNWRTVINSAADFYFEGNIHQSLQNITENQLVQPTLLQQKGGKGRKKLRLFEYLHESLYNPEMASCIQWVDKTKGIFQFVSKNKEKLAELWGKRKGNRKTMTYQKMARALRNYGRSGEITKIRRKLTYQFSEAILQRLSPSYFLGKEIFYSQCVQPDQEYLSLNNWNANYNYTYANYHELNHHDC
# [2] = target: T2, ETS2 (UniProt P15036)
# T2 sequence: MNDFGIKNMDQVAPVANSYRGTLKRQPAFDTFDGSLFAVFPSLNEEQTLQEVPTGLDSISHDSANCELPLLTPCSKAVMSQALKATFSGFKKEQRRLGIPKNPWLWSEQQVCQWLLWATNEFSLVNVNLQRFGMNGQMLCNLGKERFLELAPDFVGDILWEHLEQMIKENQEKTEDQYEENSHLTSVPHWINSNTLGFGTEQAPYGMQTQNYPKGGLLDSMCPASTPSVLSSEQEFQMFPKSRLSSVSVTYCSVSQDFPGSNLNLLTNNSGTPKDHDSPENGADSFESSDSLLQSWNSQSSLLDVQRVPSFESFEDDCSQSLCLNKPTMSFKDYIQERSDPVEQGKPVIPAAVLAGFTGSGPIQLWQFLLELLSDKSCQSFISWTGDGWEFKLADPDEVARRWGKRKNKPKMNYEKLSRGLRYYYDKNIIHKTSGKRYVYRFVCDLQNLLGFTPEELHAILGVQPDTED
# [3] = target: T3, ETV3 (UniProt P41162-2)
# T3 sequence: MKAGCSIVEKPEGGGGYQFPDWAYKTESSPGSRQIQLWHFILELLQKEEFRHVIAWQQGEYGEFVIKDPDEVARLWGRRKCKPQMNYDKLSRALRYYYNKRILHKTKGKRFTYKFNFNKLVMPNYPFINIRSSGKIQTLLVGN
# [4] = target: T4, ELK3 (UniProt P41970)
# T4 sequence: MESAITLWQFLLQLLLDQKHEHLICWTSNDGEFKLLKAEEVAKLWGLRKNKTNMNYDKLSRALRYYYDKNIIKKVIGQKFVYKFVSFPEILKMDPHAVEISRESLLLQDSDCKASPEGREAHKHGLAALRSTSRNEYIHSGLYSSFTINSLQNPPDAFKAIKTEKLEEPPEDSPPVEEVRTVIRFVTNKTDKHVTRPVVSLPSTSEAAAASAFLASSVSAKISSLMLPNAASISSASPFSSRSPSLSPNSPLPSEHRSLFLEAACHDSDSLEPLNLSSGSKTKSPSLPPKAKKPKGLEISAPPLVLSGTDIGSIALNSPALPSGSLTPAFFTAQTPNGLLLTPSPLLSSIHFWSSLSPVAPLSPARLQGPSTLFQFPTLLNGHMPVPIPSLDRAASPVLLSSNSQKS
Sequence,binding signal [1],binding signal [2],binding signal [3],binding signal [4]
CGCTAA,0.999,0.901,0.986,
GATTGC,0.996,0.945,0.897,0.923
CAGCCT,0.965,0.965,0.908,0.954
AACGCA,1.02,1.1,1.03,
CCCCCC,0.977,1.1,1.14,
CTATAG,0.976,1,1.09,
ACCACG,1.08,0.959,1.04,
GCCACA,0.983,0.918,0.931,0.932
AACGAT,1.19,1.22,1.24,
ATGTGC,1.17,1.1,1.15,
ACAGCA,0.969,1.09,1,
AGCTTA,1.12,1.15,1.17,
GACCGC,0.931,0.878,0.903,0.859
ATGGGG,1.16,0.984,1.13,
GAAAAT,1.09,1.13,1.07,
TCGAGT,0.888,0.931,0.92,0.936
GTTGCC,0.846,0.961,0.94,1
TTCCGG,5.6,6,6.28,
TCCCCG,1.04,1.11,1.27,
TAGACA,0.918,0.959,0.99,
GCGTAT,1.07,0.91,0.927,0.857
TTCCCG,1.91,1.97,1.92,
GACCAA,0.849,0.996,0.968,0.932
GCGAAT,0.963,0.968,1.07,0.981
TCGGCT,0.961,0.9,0.925,0.822
GATTAA,0.959,1.01,0.994,

Sequence,binding signal [1],binding signal [2],binding signal [3],binding signal [4]
AGAATG,0.974,0.917,0.919,
ACTGAA,1.31,1.23,1.21,
CATCAA,0.924,0.961,0.974,1.07
GATGTA,1.12,1.49,1.39,
GTCTAT,1.18,1.01,1,
AATGTT,1.68,1.56,,
GGTCTG,0.764,0.986,0.924,
AGATAA,0.953,1.04,0.976,0.978
GCAATC,0.992,1.04,1.06,0.915
TGGTCA,1.07,1.13,,0.941
GCGCGC,1.15,0.967,,1.01
ATCACG,1.04,0.927,0.967,0.955
CACCTG,0.923,0.987,1.03,0.949
TGTAAC,0.96,1.32,,1.2
GCAACA,0.877,0.979,0.973,0.963
CCCTGT,1.2,1.06,0.993,0.996
GGCCCT,1.11,0.99,,0.997
CATGCA,0.961,1.06,,1.02
TTCCGA,1.61,1.67,,1.68
CCGGCG,0.864,0.977,,1.02
TGCCCC,1.41,1.12,,1.18
ACTGTA,1.24,0.986,,1.04
ACTTGA,1,0.913,,0.83
AACGGT,0.994,0.937,0.929,0.915
GTTTCT,1.28,1.28,,1.14
CATGTT,0.952,1.01,,0.955

Sequence,binding signal [1],binding signal [2],binding signal [3],binding signal [4]
GCCCGG,0.936,0.974,1.07,0.926
TTGAAG,0.894,0.942,,0.906
CTATCA,0.924,1.04,0.969,1.11
CGTTGT,0.998,0.925,,0.865
AGATGT,0.96,0.995,0.945,0.958
AGGTAA,0.772,0.97,0.958,0.932
AGAACA,0.967,0.988,,0.973
TATTAG,1.13,1.06,,1.18
TCTGAC,1.04,1.2,,1.24
GGCAAT,0.917,0.912,0.972,0.823
GTTACC,1.03,1.09,,1.08
AAAGCA,1.01,1.05,1.07,1.05
CCGCAA,1.42,1.47,,1.34
CAAAAG,0.975,1.04,1,0.937
ACGGTT,1.04,0.976,0.966,0.955
AGAAAC,0.995,0.992,,0.983
TGAAGC,0.808,0.996,,0.944
CGTAGC,0.935,0.993,,0.972
GAATGG,0.994,1,0.92,0.88
CACCCA,0.915,0.951,0.996,0.963
GGTCAC,0.982,0.976,0.941,0.998
CAATGA,0.937,,1,
GCTGGC,1.12,,1.1,
GCCGCA,0.847,,1,
CCAACG,1.11,,1.09,1

# Random excerpt: 5 records from the list
Sequence,binding signal [1],binding signal [2],binding signal [3],binding signal [4]
TGAAGC,0.808,0.996,,0.944
GGCAAT,0.917,0.912,0.972,0.823
TTGAAG,0.894,0.942,,0.906
TATTAG,1.13,1.06,,1.18
CGTTGT,0.998,0.925,,0.865
